PubChem BioAssay AID1259308, NCATS | 2017
Assay: 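Knock-downs that increase output of a recombinant reporter protein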 (primary screen). Cell system: human HEK293 embryonic kidney cells stably expressing firefly luciferase (HEK-CMV-Luc2-Hygro). Reagent: single siRNA against human genes, 0.8 pmol siRNA per well. Duration: 72 h. Measured: 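Reporter luminescence and viable-cell signal on separate replicate plates, given as percent of non-targeting control and median/MAD z-scores, plus per-cell luciferase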. Direction: total luciferase, z-score and total luciferase, % of control: higher = more reporter protein produced; luciferase per cell, z-score: higher = more reporter output per viable cell. Hit rule: 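An siRNA counts as active if its total luciferase robust z-score exceeds 3; genes with two or more such siRNAs out of three were retested with fresh siRNAs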. Meaning of the calls: active = raised luciferase; inactive = no rise.
The deposit covers about 59,000 reagents; this is a random part of them. Of all reagents, about 1,510 (2.6%) are marked active. 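Calls use total luciferase alone and ignore viability, so some active siRNAs may act by altering cell number.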 Unmarked entries are inactive. The numbers tell different reagents against one gene apart. Further read-outs or replicates are left out here. No sequences are given here.

The opening 4 records, to show the layout:
target	siRNA no.	total luciferase, z-score	total luciferase, % of control	luciferase per cell, z-score
ZCCHC2 (zinc finger CCHC-type containing 2)	1	-0.112	79.7	1.15
ZCCHC2 (zinc finger CCHC-type containing 2)	2	1.45	111	0.916
ZCCHC2 (zinc finger CCHC-type containing 2)	3	0.501	91.9	-0.359
USF1 (upstream transcription factor 1)	1	-0.929	63.4	-0.897

The list itself, from the first entry:
target	siRNA no.	total luciferase, z-score	total luciferase, % of control	luciferase per cell, z-score
ZCCHC2 (zinc finger CCHC-type containing 2)	1	-0.112	79.7	1.15
ZCCHC2 (zinc finger CCHC-type containing 2)	2	1.45	111	0.916
ZCCHC2 (zinc finger CCHC-type containing 2)	3	0.501	91.9	-0.359
USF1 (upstream transcription factor 1)	1	-0.929	63.4	-0.897
USF1 (upstream transcription factor 1)	2	-1.04	61.2	-1.47
USF1 (upstream transcription factor 1)	3	0.931	100	1.53
MC1R (melanocortin 1 receptor)	1	0.117	84.2	0.182
MC1R (melanocortin 1 receptor)	2	1.46	111	0.815
MC1R (melanocortin 1 receptor)	3	-2.3	36.1	-2.92
CYP2B6 (cytochrome P450 family 2 subfamily B member 6)	1	1.45	111	1.48
CYP2B6 (cytochrome P450 family 2 subfamily B member 6)	2	-0.388	74.2	-0.55
CYP2B6 (cytochrome P450 family 2 subfamily B member 6)	3	5.28 (active)	187	3.94
ABHD16B (abhydrolase domain containing 16B)	1	-2.38	34.5	-2.47
ABHD16B (abhydrolase domain containing 16B)	2	1.3	108	1.14
ABHD16B (abhydrolase domain containing 16B)	3	0.123	84.3	-0.141
CT62 (cancer/testis associated 62)	1	1.29	108	0.766
CT62 (cancer/testis associated 62)	2	-0.46	72.7	-0.517
CT62 (cancer/testis associated 62)	3	-0.657	68.8	-0.802
LOC729683	1	1.87	119	2.24
LOC729683	2	-1.13	59.5	0.437
LOC729683	3	-1.75	47.1	-1.59
HS3ST3B1 (heparan sulfate-glucosamine 3-sulfotransferase 3B1)	1	-1.02	61.6	-1.25
HS3ST3B1 (heparan sulfate-glucosamine 3-sulfotransferase 3B1)	2	1.08	103	0.85
HS3ST3B1 (heparan sulfate-glucosamine 3-sulfotransferase 3B1)	3	0.71	96	0.612
AS3MT (arsenite methyltransferase)	1	-0.174	78.4	-0.455
AS3MT (arsenite methyltransferase)	2	-1.34	55.3	-1.27
AS3MT (arsenite methyltransferase)	3	-2.12	39.8	-1.9
IGSF8 (immunoglobulin superfamily member 8)	1	0.993	102	0.236
IGSF8 (immunoglobulin superfamily member 8)	2	0.841	98.6	0.166
IGSF8 (immunoglobulin superfamily member 8)	3	-0.628	69.4	-0.407
CFL1 (cofilin 1)	1	-0.626	69.4	0.108
CFL1 (cofilin 1)	2	-1.5	52.1	-1.41
CFL1 (cofilin 1)	3	2.29	127	1.28
SPG7 (SPG7 matrix AAA peptidase subunit, paraplegin)	1	-0.346	75	0.021
SPG7 (SPG7 matrix AAA peptidase subunit, paraplegin)	2	1.89	119	3.19
SPG7 (SPG7 matrix AAA peptidase subunit, paraplegin)	3	-0.116	79.6	-0.933
RHOC (ras homolog family member C)	1	0.542	92.7	-0.18
RHOC (ras homolog family member C)	2	-0.578	70.4	-0.639
RHOC (ras homolog family member C)	3	0.0938	83.8	0.807
